Experimental data published in PubChem BioAssay AID493014 (National Center for Advancing Translational Sciences (NCATS), 2011).
Some of the results follow. Further columns of the screen follow, without active or inactive calls. Compounds called inactive in the main read-out are mostly missing here. Words in brackets tell the shape of the fitted curve; partial curves, single points and poor fits give uncertain potencies.

Test: qHTS Assay to Find Inhibitors of Chronic Active B-Cell Receptor Signaling
Details: ABC-DLBCL IkBa-CBG/CBR reporter, luminescence ratio (green luciferase fused to IkBa over red control in TMD8 lymphoma cells), 4 h
Procedure, shortened: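 TMD8 human ABC-DLBCL cells with doxycycline-inducible IκBα–green luciferase fusion and unfused red luciferase, in 0.5% FBS medium; compounds up to 46 uM, 4 h at 37C. Green/red luminescence ratio, filter-overlap corrected, fitted to concentration-response curves.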

[1] = measured here: CBR red luminescence, cell number
[2] = measured here: IkBa-CBG green luminescence

SMILES	AC50 [1]	AC50 [2]
CCOCCCNC(=O)/C(C#N)=C/c1ccccc1F	10 µM [falling, partial curve, poor fit]	–
O=C(Nc1cccc(NC(=O)c2ccccc2F)c1)c1ccccc1	35.5 µM [falling, single point]	–
CCN(CC(=O)Nc1ccc([N+](=O)[O-])cc1OC)c1ccccc1	10 µM [falling, partial curve]	–
CCN(CC)C(=O)CC(c1ccc(F)cc1)c1ccco1 (configuration not stated)	29.1 µM [falling, single point]	–
CCN(Cc1nc2ccccc2c(=O)[nH]1)C(=O)COc1ccccc1-c1ccccc1	18.4 µM [falling, single point]	–
O=C(NCCc1ccccc1)c1cnc2sccn2c1=O	20.6 µM [falling, single point]	–
C=CCOC(=O)C(=O)/C=C/c1ccc2c(c1)Cc1ccccc1-2	1.58 µM [falling, partial curve, poor fit]	–
CN1CCN(CCCNC(=O)c2cc3c(=O)n(C)c4ccccc4c3s2)CC1	16.4 µM [falling, partial curve, poor fit]	–
O=C(CCc1ccccc1)Nc1cc2c(cc1Cl)OCCO2	29.1 µM [rising, single point]	–
S=C(NCCN1CCOCC1)Nc1ccc(-c2nc3ccccc3[nH]2)cc1	12.6 µM [falling, partial curve, poor fit]	–
COc1ccccc1C(=O)COC(=O)c1cccs1	2.06 µM [rising, full curve]	–
CS(=O)(=O)c1ccc(-c2sc3ccccc3c2C(=O)N2CCN(c3ccc(F)cc3)CC2)cc1	0.0366 µM [rising, full curve, poor fit]	–
COc1ccc(OC)c(Nc2cc(-c3ccccc3)nc(N)n2)c1	29.1 µM [rising, single point]	–
c1ccc(CSc2nnc(-c3sccc3-n3cccc3)o2)cc1	12.6 µM [rising, partial curve]	–
O=C(NCCCN1CCCC1=O)c1cccc(NS(=O)(=O)c2ccccc2)c1	5.17 µM [falling, single point]	–
Cc1ccc(CC2S/C(=N/N=C/c3ccco3)NC2=O)cc1 (configuration not stated)	35.5 µM [rising, partial curve, poor fit]	–
O=C(Cc1ccccc1)Nc1ccc(NC(=O)c2ccco2)cc1Cl	25.1 µM [falling, partial curve, poor fit]	–
CC1CCC2C(=O)N(c3cccc(OS(=O)(=O)c4ccccc4)c3)C(=O)C2C1 (configuration not stated)	1.46 µM [rising, full curve, poor fit]	–
O=C(c1ccccc1)N1CCN2C(=O)c3ccccc3C12c1ccc(Cl)cc1 (configuration not stated)	20.6 µM [falling, partial curve]	16.4 µM [rising, partial curve, poor fit]
CCOC(=O)N1CCN(Cc2cccs2)CC1	18.4 µM [falling, single point]	–
COc1ccc2nc(SCC(=O)Nc3ccc4c(c3)OCCO4)[nH]c2c1	12.6 µM [falling, partial curve]	–

As entered above.
Entry of COc1ccc(OC)c(Nc2cc(-c3ccccc3)nc(N)n2)c1 under AC50 [1]: 29.1 µM [rising, single point]
Entry of COc1ccccc1C(=O)COC(=O)c1cccs1 under AC50 [1]: 2.06 µM [rising, full curve]

Next structures:

SMILES	AC50 [1]	AC50 [2]
O=C1NCCCc2c1oc1ccc(O)cc21	5.62 µM [falling, partial curve, poor fit]	–
CC(=O)c1ccc(OCc2ncc(C(F)(F)F)cc2Cl)cc1	17.8 µM [rising, partial curve]	–
CC(C)CNC(=O)COCc1cc(-c2ccc3c(c2)OCO3)on1	3.16 µM [falling, full curve]	–
COCCNc1nc2c(-c3cccc(C(F)(F)F)c3)nnn2c2ccccc12	10 µM [rising, partial curve, poor fit]	–
Cc1ccc2nc(SCC(=O)Nc3cccc(S(=O)(=O)NC4=NCCCCC4)c3)[nH]c2c1	8.91 µM [falling, partial curve]	–
CC(C)c1nc2sc3c(=S)nc[nH]c3c2c2c1CCC2	8.91 µM [rising, partial curve, poor fit]	–
COc1cccc(-c2nc(CC(=O)O)cs2)c1OC	20.6 µM [rising, single point]	–
C=CCc1cccc(C=Nc2cccn3cc(-c4ccccc4)nc23)c1O	25.1 µM [falling, single point]	–
Cc1ccc2cc3c(N)c(C(=O)N4CC(=O)Nc5ccccc54)sc3nc2c1	0.447 µM [rising, full curve, poor fit]	0.447 µM [falling, full curve, poor fit]
O=c1cc(N2CCc3ccccc32)[nH]c(=O)n1-c1ccc(Br)cc1	20.6 µM [falling, partial curve]	–
O=C(Nc1ccccc1)Nc1ccc2ccccc2n1	0.1 µM [rising, full curve, poor fit]	–
Cc1ccc(/C=C2\SC(=S)N(CCCC(=O)NC3CCCC3)C2=O)cc1	3.98 µM [falling, partial curve, poor fit]	–
CCC(C)C(=O)N1CCc2cc(-c3csc(N)n3)ccc21 (configuration not stated)	2.24 µM [rising, full curve]	–
COc1cc(/C=C/c2ccc3c(Br)cc(Br)c(O)c3n2)ccc1O	35.5 µM [falling, single point]	3.16 µM [falling, partial curve, poor fit]
Cc1ccc(NC(=S)Nc2cc(-c3ccccc3)[nH]n2)cc1Cl	35.5 µM [falling, single point]	–
CCn1cc(C(=O)OCc2cccc(Br)c2)c(=O)c2ccc(C)nc21	6.51 µM [falling, single point]	–
O=C(Nc1nnc(C(F)(F)F)s1)c1ccc(Br)s1	1.26 µM [falling, full curve, poor fit]	–
COc1ccc(OC)c(-c2cc(C(=O)Nc3c(C)nn(Cc4ccccc4Cl)c3C)no2)c1	1.26 µM [rising, full curve, poor fit]	–
COc1ccc(C(=O)C2CCCN(Cc3cccn3-c3ccc(Cl)cn3)C2)c(OC)c1 (configuration not stated)	35.5 µM [falling, single point]	–
CC(C)=NNc1nc2c(c(=O)n(C)c(=O)n2C)n1C	5.01 µM [falling, partial curve]	–
CC(=O)OCC1O[C@@H](O[C@@H]2C[C@H]3C(C)(C)[C@H](OC(C)=O)CC[C@]3(C)[C@H]3CC[C@]45C[C@]4(CC[C@H]5[C@@H](C)C[C@@H](O)[C@H](O)C(C)(C)O)[C@@]32C)[C@H](O)[C@@H](O)[C@@H]1O (some centres not stated)	14.6 µM [falling, partial curve]	14.6 µM [rising, partial curve]

Part of the list above in order of SMILES length, ascending:
SMILES	AC50 [1]	AC50 [2]
CC(C)=NNc1nc2c(c(=O)n(C)c(=O)n2C)n1C	5.01 µM [falling, partial curve]	–
CC(=O)c1ccc(OCc2ncc(C(F)(F)F)cc2Cl)cc1	17.8 µM [rising, partial curve]	–
COc1ccc(OC)c(-c2cc(C(=O)Nc3c(C)nn(Cc4ccccc4Cl)c3C)no2)c1	1.26 µM [rising, full curve, poor fit]	–

The listing continues:

SMILES	AC50 [1]	AC50 [2]
Cc1cccc(-c2nsc(SCC(=O)Nc3nccs3)n2)c1	0.708 µM [rising, full curve, poor fit]	–
O=C(Nc1ccc(S(=O)(=O)Nc2ccc(F)cc2)cc1)c1ccc(CN2CCOCC2)cc1	1.58 µM [falling, single point]	–
CCC(=O)Nc1nnc(SCc2cccc(F)c2)s1	1.78 µM [rising, full curve, poor fit]	–
CC(=O)OC(C(=O)NC1CCCCC1)c1cccc(F)c1 (configuration not stated)	0.1 µM [rising, full curve, poor fit]	–
CSCc1c(C(=O)OCC(=O)c2ccc[nH]2)oc2ccccc12	1.64 µM [falling, full curve]	–
Clc1cccc(/C=N\Nc2nccs2)c1	0.517 µM [rising, partial curve, poor fit]	–
CN(CC(=O)O/N=C(\N)c1ccccn1)S(=O)(=O)c1cc(Cl)ccc1Cl	2.82 µM [rising, partial curve, poor fit]	2.51 µM [falling, full curve, poor fit]
CCOC(=O)C1=C(C)N=c2s/c(=C\c3ccncc3)c(=O)n2C1c1ccc2c(c1)OCO2 (configuration not stated)	3.55 µM [falling, partial curve, poor fit]	–
O=C(CS(=O)CC(=O)N(CC(=O)NC1CCCC1)C1CCCCC1)Nc1ccc(F)cc1 (configuration not stated)	14.1 µM [falling, partial curve, poor fit]	–
Cc1nn(-c2ccccc2)c(C)c1/C=C/C(=O)OCC(=O)NC1CCS(=O)(=O)C1 (configuration not stated)	14.1 µM [rising, single point]	–
O=C(Nc1cccc(S(=O)(=O)Nc2ccc(Cl)cc2)c1)c1cc2c(s1)CCCC2	29.1 µM [falling, single point]	–
O=C(O)c1ccc(NC2=C(Cl)C(=O)c3ccccc3C2=O)cc1	2 µM [falling, full curve]	5.62 µM [rising, full curve, poor fit]
CSc1cc(-c2ccc(Cl)cc2)c(C(=O)N2CCCC2)s1	3.26 µM [rising, single point]	–
COc1ccc(Cc2noc(CN(C)Cc3ccc(-n4cccn4)cc3)n2)cc1OC	4.47 µM [rising, partial curve, poor fit]	–
CC(=O)N/C(=C\c1ccccc1)C(=O)OCc1cccc(S(=O)(=O)N(C)C)c1	0.794 µM [falling, full curve, poor fit]	–
CC1(C)CC(=O)C=C(NCCc2c[nH]c3ccccc23)C1	0.251 µM [rising, partial curve, poor fit]	–
COc1cc(CNc2ccc(N3CCN(C(C)=O)CC3)cc2)ccc1OCc1ccc(F)cc1	35.5 µM [falling, single point]	–
Cc1cccc(OCCNC(=O)c2ncn[nH]2)c1	29.1 µM [falling, single point]	–
CCCN(CCC)S(=O)(=O)c1ccc(C(=O)Nc2ccc(S(=O)(=O)Nc3nnc(CC)s3)cc2)cc1	22.4 µM [falling, single point]	–
